The other results are listed elsewhere or left out.
Assays:
Experiment in all cases: log2 fold change, soluble protein after heating vs DMSO (PISA); higher = thermal stabilisation; K562 cells, 10 uM, 30 min; active = over 0.2 and 3.5 SD of the protein, either way, in both replicates (recomputed)
[1] = compound: C1=CC=C(C=C1)[C@H](COC2=CC3=C(C=C2)NC(=O)N3)NC(=O)C4=CC=CN(C4=O)CC5=CC(=C(C=C5)F)F
Procedure, shortened: (§1)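 Soluble protein was quantified by TMTpro 16plex LC-MS/MS after channel sums were equalised. It was obtained as the supernatant after 21,000xg for 90 min from pooled aliquots of K562 cells (2×10^6 cells/mL, 10 μM compound, 30 min) heated for 3 min across 48°C-58°C and extracted in PBS with 0.5% NP-40 at 4°C. Thermal stability values are relative to control samples and come from duplicates. They are given as log2 fold changes.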

Amino acid sequences for entries named in this document (tags omitted). A change or cut given only in a name is not applied to a line headed by its entry.
UniProt Q96JP5: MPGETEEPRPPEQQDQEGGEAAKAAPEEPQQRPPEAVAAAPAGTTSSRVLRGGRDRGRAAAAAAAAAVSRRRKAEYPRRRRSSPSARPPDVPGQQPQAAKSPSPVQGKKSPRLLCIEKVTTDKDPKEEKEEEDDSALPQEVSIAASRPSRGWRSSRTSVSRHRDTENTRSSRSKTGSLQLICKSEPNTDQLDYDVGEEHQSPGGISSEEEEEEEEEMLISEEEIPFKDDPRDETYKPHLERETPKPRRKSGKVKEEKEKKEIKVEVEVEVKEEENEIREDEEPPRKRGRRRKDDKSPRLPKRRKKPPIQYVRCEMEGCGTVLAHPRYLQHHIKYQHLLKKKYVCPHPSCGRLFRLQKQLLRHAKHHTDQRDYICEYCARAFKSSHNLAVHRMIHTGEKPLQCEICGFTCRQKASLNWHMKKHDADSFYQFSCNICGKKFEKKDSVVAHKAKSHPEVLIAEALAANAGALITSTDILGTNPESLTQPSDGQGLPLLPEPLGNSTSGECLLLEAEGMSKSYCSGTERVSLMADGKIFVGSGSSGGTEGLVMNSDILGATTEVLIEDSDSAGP
UniProt O95405: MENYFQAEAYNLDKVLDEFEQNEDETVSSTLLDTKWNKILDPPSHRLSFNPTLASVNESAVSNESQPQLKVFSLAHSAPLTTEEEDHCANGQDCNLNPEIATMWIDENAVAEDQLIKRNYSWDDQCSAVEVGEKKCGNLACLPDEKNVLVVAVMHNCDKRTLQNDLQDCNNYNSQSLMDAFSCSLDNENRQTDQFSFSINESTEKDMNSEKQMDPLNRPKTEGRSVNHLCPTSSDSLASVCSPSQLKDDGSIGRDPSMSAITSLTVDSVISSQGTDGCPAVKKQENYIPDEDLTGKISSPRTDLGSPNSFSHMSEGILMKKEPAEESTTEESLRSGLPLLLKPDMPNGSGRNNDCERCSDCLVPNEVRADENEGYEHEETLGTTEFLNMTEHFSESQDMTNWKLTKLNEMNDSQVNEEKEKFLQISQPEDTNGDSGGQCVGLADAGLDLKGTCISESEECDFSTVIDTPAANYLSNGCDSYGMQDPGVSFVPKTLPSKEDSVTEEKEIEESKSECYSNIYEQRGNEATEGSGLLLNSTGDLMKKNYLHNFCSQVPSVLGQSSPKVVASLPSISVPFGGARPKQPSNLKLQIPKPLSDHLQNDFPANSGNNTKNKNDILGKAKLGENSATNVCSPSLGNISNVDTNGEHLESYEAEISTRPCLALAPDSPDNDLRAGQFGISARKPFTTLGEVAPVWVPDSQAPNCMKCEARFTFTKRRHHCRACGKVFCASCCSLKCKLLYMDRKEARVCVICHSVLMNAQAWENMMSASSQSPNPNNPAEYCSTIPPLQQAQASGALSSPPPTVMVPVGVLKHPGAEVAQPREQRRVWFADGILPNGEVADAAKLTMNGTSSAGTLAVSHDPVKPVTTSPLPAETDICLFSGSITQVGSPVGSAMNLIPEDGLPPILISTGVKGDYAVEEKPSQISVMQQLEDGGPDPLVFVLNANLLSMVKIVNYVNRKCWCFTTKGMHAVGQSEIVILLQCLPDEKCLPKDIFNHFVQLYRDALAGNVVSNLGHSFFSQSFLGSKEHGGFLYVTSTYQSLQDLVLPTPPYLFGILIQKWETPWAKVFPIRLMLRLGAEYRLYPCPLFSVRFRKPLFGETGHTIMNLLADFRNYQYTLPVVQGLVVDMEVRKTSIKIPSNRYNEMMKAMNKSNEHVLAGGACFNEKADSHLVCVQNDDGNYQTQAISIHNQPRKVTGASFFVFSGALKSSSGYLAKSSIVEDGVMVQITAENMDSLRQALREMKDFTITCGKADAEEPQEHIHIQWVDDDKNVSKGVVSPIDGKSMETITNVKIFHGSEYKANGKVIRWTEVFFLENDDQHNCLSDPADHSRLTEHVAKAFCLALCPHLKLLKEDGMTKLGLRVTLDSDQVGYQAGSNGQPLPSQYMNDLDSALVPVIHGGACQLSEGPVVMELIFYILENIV
UniProt Q5T4F4: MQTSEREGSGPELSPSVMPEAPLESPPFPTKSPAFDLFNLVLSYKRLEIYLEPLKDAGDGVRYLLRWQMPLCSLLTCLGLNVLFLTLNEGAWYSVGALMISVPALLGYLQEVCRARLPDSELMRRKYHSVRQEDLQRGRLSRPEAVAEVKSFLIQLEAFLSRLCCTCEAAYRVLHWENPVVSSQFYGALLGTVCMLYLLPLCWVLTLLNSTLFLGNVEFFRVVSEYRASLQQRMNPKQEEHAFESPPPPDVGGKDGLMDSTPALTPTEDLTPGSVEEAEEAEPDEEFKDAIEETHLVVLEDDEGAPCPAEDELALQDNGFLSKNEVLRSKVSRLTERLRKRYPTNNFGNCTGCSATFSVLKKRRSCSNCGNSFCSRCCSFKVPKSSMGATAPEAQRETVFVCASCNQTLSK
UniProt Q86VM9: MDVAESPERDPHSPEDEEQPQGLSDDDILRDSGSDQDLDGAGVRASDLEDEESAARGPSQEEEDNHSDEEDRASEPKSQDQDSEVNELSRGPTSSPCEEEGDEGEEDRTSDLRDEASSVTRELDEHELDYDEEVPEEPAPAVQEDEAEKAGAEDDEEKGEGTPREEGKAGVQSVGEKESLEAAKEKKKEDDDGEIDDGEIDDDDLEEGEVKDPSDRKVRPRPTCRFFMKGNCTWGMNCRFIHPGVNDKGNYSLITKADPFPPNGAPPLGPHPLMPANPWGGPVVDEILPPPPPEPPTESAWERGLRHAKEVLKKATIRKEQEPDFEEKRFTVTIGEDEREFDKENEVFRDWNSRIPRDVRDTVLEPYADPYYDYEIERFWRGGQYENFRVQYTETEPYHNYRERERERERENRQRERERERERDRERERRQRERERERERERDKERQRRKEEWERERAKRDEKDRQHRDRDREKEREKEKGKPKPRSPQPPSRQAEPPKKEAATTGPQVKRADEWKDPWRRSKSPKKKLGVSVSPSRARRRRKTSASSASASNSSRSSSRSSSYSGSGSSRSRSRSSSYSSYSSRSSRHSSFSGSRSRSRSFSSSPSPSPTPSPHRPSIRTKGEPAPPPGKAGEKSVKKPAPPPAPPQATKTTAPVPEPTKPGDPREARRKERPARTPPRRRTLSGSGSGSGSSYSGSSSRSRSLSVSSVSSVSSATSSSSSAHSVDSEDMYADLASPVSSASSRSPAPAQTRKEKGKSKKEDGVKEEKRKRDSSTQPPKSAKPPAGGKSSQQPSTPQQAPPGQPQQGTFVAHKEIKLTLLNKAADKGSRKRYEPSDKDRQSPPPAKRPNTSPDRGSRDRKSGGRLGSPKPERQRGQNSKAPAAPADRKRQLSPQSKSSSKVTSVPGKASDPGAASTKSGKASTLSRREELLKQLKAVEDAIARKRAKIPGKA
UniProt Q86WB0: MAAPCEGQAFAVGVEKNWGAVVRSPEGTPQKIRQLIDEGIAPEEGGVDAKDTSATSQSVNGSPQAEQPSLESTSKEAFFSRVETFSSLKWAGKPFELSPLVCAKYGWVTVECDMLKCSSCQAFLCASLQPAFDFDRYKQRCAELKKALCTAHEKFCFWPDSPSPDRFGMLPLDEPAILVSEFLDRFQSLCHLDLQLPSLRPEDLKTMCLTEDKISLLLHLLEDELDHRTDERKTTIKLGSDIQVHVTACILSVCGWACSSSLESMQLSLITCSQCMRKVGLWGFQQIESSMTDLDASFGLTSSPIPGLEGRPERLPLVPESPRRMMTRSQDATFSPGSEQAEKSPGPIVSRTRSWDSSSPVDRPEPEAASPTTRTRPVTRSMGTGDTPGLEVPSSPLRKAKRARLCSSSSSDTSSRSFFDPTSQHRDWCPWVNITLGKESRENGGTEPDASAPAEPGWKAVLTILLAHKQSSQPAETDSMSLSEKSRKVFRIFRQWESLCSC
UniProt Q9HCC9: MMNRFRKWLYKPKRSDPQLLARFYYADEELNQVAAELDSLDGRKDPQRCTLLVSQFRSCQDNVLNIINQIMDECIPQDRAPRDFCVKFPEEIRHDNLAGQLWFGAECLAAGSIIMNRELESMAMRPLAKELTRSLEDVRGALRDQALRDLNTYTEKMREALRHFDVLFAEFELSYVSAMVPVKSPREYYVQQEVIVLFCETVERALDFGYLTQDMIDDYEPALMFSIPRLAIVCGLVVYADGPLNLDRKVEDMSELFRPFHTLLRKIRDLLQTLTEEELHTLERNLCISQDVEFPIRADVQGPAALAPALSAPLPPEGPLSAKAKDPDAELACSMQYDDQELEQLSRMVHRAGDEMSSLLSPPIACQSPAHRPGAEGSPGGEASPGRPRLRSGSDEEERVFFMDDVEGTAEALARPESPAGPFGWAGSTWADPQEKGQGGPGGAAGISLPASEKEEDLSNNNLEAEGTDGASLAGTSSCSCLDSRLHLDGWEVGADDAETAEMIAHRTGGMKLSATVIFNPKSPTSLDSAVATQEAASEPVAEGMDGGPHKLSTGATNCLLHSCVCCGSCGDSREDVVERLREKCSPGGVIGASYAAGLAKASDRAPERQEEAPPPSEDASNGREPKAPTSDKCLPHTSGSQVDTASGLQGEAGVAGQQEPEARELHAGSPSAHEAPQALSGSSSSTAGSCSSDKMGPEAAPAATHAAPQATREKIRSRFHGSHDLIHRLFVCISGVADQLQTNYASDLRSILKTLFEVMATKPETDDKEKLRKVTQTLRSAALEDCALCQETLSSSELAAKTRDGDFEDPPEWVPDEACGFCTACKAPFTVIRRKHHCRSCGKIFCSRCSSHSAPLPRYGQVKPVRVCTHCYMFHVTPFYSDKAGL
UniProt Q8IZN3: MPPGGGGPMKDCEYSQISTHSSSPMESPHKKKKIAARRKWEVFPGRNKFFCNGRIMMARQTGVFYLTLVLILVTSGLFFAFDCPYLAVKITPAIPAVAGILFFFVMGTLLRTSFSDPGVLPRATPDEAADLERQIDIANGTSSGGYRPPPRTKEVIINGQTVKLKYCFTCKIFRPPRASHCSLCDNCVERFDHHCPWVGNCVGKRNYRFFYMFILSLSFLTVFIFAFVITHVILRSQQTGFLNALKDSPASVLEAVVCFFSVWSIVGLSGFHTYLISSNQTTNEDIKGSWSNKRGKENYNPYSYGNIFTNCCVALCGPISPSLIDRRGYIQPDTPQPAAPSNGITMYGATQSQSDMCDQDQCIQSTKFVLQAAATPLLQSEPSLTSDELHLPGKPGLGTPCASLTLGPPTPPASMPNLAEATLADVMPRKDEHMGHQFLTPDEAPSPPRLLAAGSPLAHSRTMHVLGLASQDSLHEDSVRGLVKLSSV
UniProt Q96K21: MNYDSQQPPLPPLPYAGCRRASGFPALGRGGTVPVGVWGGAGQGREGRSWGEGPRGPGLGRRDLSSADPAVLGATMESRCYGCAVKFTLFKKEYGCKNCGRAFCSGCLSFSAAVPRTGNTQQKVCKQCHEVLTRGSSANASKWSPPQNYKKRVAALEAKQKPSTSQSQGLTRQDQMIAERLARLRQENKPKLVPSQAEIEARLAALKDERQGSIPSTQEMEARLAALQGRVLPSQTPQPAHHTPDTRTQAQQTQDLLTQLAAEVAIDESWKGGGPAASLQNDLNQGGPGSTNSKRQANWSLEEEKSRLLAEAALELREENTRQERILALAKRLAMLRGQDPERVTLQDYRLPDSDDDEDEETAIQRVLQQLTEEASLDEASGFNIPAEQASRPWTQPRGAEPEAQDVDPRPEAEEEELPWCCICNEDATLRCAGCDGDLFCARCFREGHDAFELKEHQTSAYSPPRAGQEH
UniProt Q9NQW7: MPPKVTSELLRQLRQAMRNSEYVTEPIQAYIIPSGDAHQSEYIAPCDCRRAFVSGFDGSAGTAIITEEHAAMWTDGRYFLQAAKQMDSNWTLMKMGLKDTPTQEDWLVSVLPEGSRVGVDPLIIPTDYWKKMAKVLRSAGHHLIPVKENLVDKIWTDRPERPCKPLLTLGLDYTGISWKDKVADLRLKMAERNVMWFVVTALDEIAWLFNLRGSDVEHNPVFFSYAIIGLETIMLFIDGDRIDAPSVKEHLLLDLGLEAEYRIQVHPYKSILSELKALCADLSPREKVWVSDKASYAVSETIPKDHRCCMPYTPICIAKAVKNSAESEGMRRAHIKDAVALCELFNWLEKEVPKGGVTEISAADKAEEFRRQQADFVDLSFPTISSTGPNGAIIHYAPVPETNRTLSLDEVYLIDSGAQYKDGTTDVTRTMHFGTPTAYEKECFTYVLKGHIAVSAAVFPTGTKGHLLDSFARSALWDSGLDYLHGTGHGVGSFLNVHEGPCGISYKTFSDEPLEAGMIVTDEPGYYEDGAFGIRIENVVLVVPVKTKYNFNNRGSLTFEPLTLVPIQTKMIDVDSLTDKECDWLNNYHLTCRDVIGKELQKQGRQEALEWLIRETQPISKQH
UniProt Q96EC8: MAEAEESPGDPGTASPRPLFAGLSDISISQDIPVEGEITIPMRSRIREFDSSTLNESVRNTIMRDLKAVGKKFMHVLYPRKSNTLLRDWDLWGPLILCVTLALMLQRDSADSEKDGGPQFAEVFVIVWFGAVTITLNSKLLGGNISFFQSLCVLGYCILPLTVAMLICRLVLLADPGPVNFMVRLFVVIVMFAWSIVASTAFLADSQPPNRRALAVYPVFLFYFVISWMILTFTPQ

[2] = compound: CC1=C(SC2=C1C(=N[C@H](C3=NN=C(N32)C)CC(=O)N)C4=CC=C(C=C4)Cl)C
Procedure, shortened: as §1

[3] = compound: CC1=C2C(=CC=C1)N=C(N(C2=O)C3=CC=CC=C3C)CN4C=NC5=C(N=CN=C54)N
Procedure, shortened: as §1

[4] = compound: Cc1sc2c(c1C)C(c1ccc(Cl)cc1)=N[C@@H](CC(=O)OC(C)(C)C)c1nnc(C)n1-2
Procedure, shortened: as §1

[5] = compound: c1ccc([C@@H]2C[C@H]2NC2CCNCC2)cc1
Procedure, shortened: as §1

Measured: log2 fold change

YIPF1 (UniProt Q9Y548)
inactive: [1] -0.292 | [2] 0.053 | [3] -0.01 | [4] 0.123 | [5] 0.038

ZFYVE1 (UniProt Q9HBF4)
inactive: [1] -0.039 | [2] -0.017 | [3] 0.119 | [4] 0.011 | [5] 0.014

ZFR (UniProt Q96KR1)
inactive: [1] 0.009 | [2] -0.007 | [3] -0.205 | [4] 0.151 | [5] 0.18

ZMYM2 (UniProt Q9UBW7)
inactive: [1] -0.302

ZFP91 (UniProt Q96JP5)
inactive: [1] -0.038 | [2] -0.221 | [3] -0.052 | [4] 0.096 | [5] 0.03

XPO7 (UniProt E7ESC6)
inactive: [1] 0.003 | [2] 0.047 | [3] 0.005 | [4] -0.009 | [5] -0.014

ZNF225 (UniProt Q9UK10)
inactive: [1] 0.087

ZFYVE9 (UniProt O95405)
inactive: [1] 0.089 | [2] 0.104 | [3] 0.04 | [4] -0.056 | [5] -0.063

XRN1 (UniProt Q8IZH2)
inactive: [1] -0.265 | [2] -0.016 | [3] 0.133 | [4] 0.156 | [5] 0.062

YTHDF1 (UniProt Q9BYJ9)
inactive: [1] 0.14

XIAP (UniProt P98170)
inactive: [1] 0.05 | [2] 0.003 | [3] 0 | [4] 0.048 | [5] 0.002

ZBTB8OS (UniProt Q8IWT0)
inactive: [1] -0.08 | [2] 0.037 | [3] 0.105 | [4] 0.118 | [5] 0.024

ZFC3H1 (UniProt O60293)
inactive: [1] -0.078

XRCC5 (UniProt P13010)
inactive: [1] -0.136 | [2] -0.019 | [3] 0.095 | [4] 0 | [5] -0.003

ZC3H15 (UniProt Q8WU90)
inactive: [1] 0.041 | [2] -0.041 | [3] -0.041 | [4] 0.043 | [5] 0.032

ZFAND2B (UniProt Q8WV99)
inactive: [1] -0.061 | [2] 0.014 | [3] -0.034 | [4] 0.028 | [5] 0.035

ZBTB3 (UniProt Q9H5J0)
inactive: [1] -0.024 | [2] 0.141 | [3] 0.164 | [4] -0.06 | [5] -0.001

ZMYM1 (UniProt Q5SVZ6)
inactive: [1] 0.077 | [2] 0.082 | [3] -0.144 | [4] -0.012 | [5] -0.011

YWHAQ (UniProt P27348)
inactive: [1] -0.031 | [2] 0.009 | [3] -0.152 | [4] -0.089 | [5] -0.083

ZC3HAV1 (UniProt Q7Z2W4)
inactive: [1] 0.027 | [2] -0.209 | [3] -0.29 | [4] 0.195 | [5] 0.043

YWHAH (UniProt Q04917)
inactive: [1] -0.015 | [2] -0.015 | [3] -0.049 | [4] -0.046 | [5] 0.016

XPR1 (UniProt Q9UBH6)
inactive: [1] -0.004 | [2] 0.037 | [3] 0.042 | [4] 0.001 | [5] 0

ZFYVE27 isoform 2 (UniProt Q5T4F4)
inactive: [1] -0.015 | [2] 0.087 | [3] 0.086 | [4] -0.036 | [5] 0.059

ZDHHC2 (UniProt Q9UIJ5)
inactive: [1] 0.156

YIF1B (UniProt Q5BJH7)
inactive: [1] -0.054 | [2] -0.294 | [3] -0.009 | [4] -0.061 | [5] -0.153

ZC3H18 (UniProt Q86VM9)
inactive: [1] 0.032 | [2] -0.031 | [3] 0.035 | [4] 0.021 | [5] 0.047

XPO5 (UniProt Q9HAV4)
inactive: [1] -0.037 | [2] 0.042 | [3] 0.02 | [4] -0.024 | [5] -0.01

ZC3HC1 (UniProt Q86WB0)
inactive: [1] -0.091 | [2] 0.07 | [3] 0.1 | [4] -0.032 | [5] -0.018

ZFYVE16 (UniProt Q7Z3T8)
inactive: [1] 0.003 | [2] 0.054 | [3] 0.031 | [4] -0.008 | [5] -0.007

ZFYVE28 (UniProt Q9HCC9)
inactive: [1] -0.082

ZCCHC8 (UniProt Q6NZY4)
inactive: [1] 0.017 | [2] 0.009 | [3] -0.045 | [4] 0.026 | [5] 0.025

YIPF3 (UniProt Q9GZM5)
inactive: [1] 0.01 | [2] 0.021 | [3] 0.016 | [4] -0.033 | [5] 0.02

ZNF131 (UniProt P52739)
inactive: [1] 0.597

ZER1 (UniProt Q7Z7L7)
inactive: [1] 0 | [2] -0.007 | [3] 0.018 | [4] -0.064 | [5] -0.03

ZDHHC14 (UniProt Q8IZN3)
inactive: [1] 0.111 | [2] 0.036 | [3] 0.177 | [4] 0.023 | [5] -0.061

YTHDF3 (UniProt Q7Z739)
inactive: [1] 0.007 | [2] 0.024 | [3] 0.081 | [4] -0.007 | [5] 0.003

ZDHHC5 (UniProt Q9C0B5)
inactive: [1] 0.015 | [2] 0.007 | [3] 0.04 | [4] -0.013 | [5] 0.077

Three neighbouring records from above, quoted:
ZDHHC14 (UniProt Q8IZN3)
inactive: [1] 0.111 | [2] 0.036 | [3] 0.177 | [4] 0.023 | [5] -0.061

YTHDF3 (UniProt Q7Z739)
inactive: [1] 0.007 | [2] 0.024 | [3] 0.081 | [4] -0.007 | [5] 0.003

ZDHHC5 (UniProt Q9C0B5)
inactive: [1] 0.015 | [2] 0.007 | [3] 0.04 | [4] -0.013 | [5] 0.077

Continued:

XRCC4 (UniProt Q13426)
inactive: [1] 0.009 | [2] -0.014 | [3] 0.058 | [4] -0.013 | [5] 0.004

ZEB1 isoform 2 (UniProt P37275)
inactive: [1] -0.12 | [2] 0.004 | [3] -0.065 | [4] -0.071 | [5] 0

ZC3H8 (UniProt Q8N5P1)
inactive: [1] 0.095 | [2] -0.089 | [3] -0.084 | [4] 0.091 | [5] 0

YLPM1 (UniProt P49750)
inactive: [1] -0.092 | [2] 0.11 | [3] 0.104 | [4] 0.005 | [5] -0.052

YTHDF2 (UniProt Q9Y5A9)
inactive: [1] 0 | [2] 0.004 | [3] -0.038 | [4] -0.014 | [5] -0.019

YWHAZ (UniProt P63104)
inactive: [1] -0.012 | [2] 0.035 | [3] -0.031 | [4] -0.033 | [5] -0.025

XRCC3 (UniProt O43542)
inactive: [1] -0.007 | [2] 0.066 | [3] -0.004 | [4] -0.011 | [5] -0.002

ZFYVE19 (UniProt Q96K21)
inactive: [1] 0.016 | [2] 0.017 | [3] 0.038 | [4] -0.033 | [5] 0.04

ZFAND3 (UniProt Q9H8U3)
inactive: [1] 0.022 | [2] -0.009 | [3] -0.112 | [4] -0.001 | [5] 0.052

YIF1A (UniProt O95070)
inactive: [1] 0.024 | [2] 0.122 | [3] -0.012 | [4] -0.043 | [5] -0.109

XRCC6 (UniProt P12956)
inactive: [1] -0.04 | [2] 0.044 | [3] 0.114 | [4] -0.022 | [5] -0.003

ZDHHC3 isoform 2 (UniProt Q9NYG2)
inactive: [1] 0.037 | [2] 0.142 | [3] -0.026 | [4] -0.017 | [5] 0.034

XPNPEP1 isoform 3 (UniProt Q9NQW7)
inactive: [1] -0.017 | [2] 0.081 | [3] 0.021 | [4] 0.002 | [5] -0.029

XRN2 (UniProt Q9H0D6)
inactive: [1] 0.017 | [2] -0.033 | [3] 0.004 | [4] 0.056 | [5] 0.106

YBX3 (UniProt P16989)
inactive: [1] 0.138 | [2] -0.191 | [3] -0.123 | [4] 0.196 | [5] 0.022

YIPF6 (UniProt Q96EC8)
inactive: [1] 0.062 | [2] -0.04 | [3] 0.114 | [4] 0.103 | [5] 0.015

ZDHHC17 (UniProt Q8IUH5)
inactive: [1] 0.014 | [2] 0.062 | [3] -0.082 | [4] -0.039 | [5] -0.011

YRDC (UniProt Q86U90)
inactive: [1] 0.007 | [2] 0.063 | [3] 0.111 | [4] -0.017 | [5] -0.024

ZMYM4 (UniProt Q5VZL5)
inactive: [1] -0.076 | [2] 0.021 | [3] 0.085 | [4] -0.041 | [5] 0.334

YJU2 (UniProt Q9BW85)
inactive: [1] -0.041 | [2] 0 | [3] 0.058 | [4] -0.02 | [5] 0.047

ZFAND6 (UniProt Q6FIF0)
inactive: [1] 0 | [2] -0.015 | [3] 0.042 | [4] -0.143 | [5] 0.004

From the supplement of paper PMC10849652
